The record followed here is PubChem BioAssay AID2685 (National Center for Advancing Translational Sciences (NCATS), 2010).

The nature of this assay: qHTS Assay for Lipid Storage Modulators in Drosophila S3 Cells.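 As to cell number change: cells counted by Cell Tracker Red CMTPX staining in the red channel.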 The following applies: BODIPY lipid droplet fluorescence, 18-24 h; for cell number change: measured here: cell count max response, cells fed with added oleic acid. The gist of the method:
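Drosophila S3 cells loaded with oleic acid (400 uM, as added) and compounds at several concentrations; lipid droplets imaged by 488-nm laser-scanning cytometry, 500–530 nm intensity and object ratio to cell channel. Percent activity normalized to 20 uM Triacsin C.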
Background: In qHTS, concentration-response curves come from the screen itself.

Setting [1] is: measured here: lipid fluorescence (Fed channel) AC50, cells fed with added oleic acid.
[2] abbreviates: measured here: cell number channel AC50, cells fed with added oleic acid.

The other results are listed elsewhere or left out. The main result of the screen is listed elsewhere. These columns were measured beside it and carry no call. Compounds called inactive in the main read-out are mostly missing here. Potencies come from curve fits of mixed quality, noted in brackets.

Take `Cc1cccc(C)c1NC(=O)COC(=O)COc1ccc2c(C)cc(=O)oc2c1`: the cell number change is 11.3%. Moreover, under setting [1], the concentration at half-maximal activity (AC50) – broadly, the midpoint of the concentration-response curve, whichever way the signal moves – is 9.2 µM [rising, partial curve, poor fit].

Consider `COCCC(=O)N1CCC(Oc2ccc(C(=O)NCCSC)cc2)CC1`, for which the cell number change was -0.787%. The AC50 under setting [1] is 8.2 µM [rising, partial curve].

Consider `Cc1cc(C)n(CC(=O)NNC(=O)C2CC(=O)N(Cc3ccccc3Cl)C2)n1` (stereo not given), for which the cell number change is 10.9%.

In the case of `COc1cc(OC)cc(C(=O)N[C@H](C(=O)OCc2cc(=O)oc3cc(C)ccc23)C(C)C)c1`, the cell number change is 1.57%. Moreover, the concentration at half-maximal activity (AC50) under setting [2] was 1.16 µM [rising, single point].

`COc1ccc(N(C(=O)c2cnsn2)C(C(=O)NC2CCCCC2)c2ccncc2)cc1` (stereo not given): the cell number change was 1.96%. For the same compound, the AC50 under setting [1] was 0.731 µM [falling, full curve].

Take `O=S1(=O)CCN2C=Nc3sc4c(c3C2=N1)CCCC4`: the cell number change is -10.3%. For the same compound, the AC50 under setting [2] is 7.31 µM [falling, single point]. The AC50 under setting [1] was 14.6 µM [falling, single point].

For `CC(=O)c1ccc(NC(=O)c2ccccc2Sc2ncnc3sc(C)c(C)c23)cc1`, the cell number change is 38.4%. Further, the AC50 under setting [2] is 14.6 µM [rising, partial curve].

As for `COc1ccc(C(=O)Nc2nc(-c3ccc(S(=O)(=O)N4CCOCC4)cc3)cs2)cc1`, the cell number change is 10.7%. In addition, under setting [1], the AC50 is 23.1 µM [rising, partial curve].

In the case of `Cc1ccc(N2C(=O)C(CN3CCCC3)C2c2ccccc2)cc1` (stereo not given), the cell number change was -7.64%. The AC50 under setting [1] was 16.4 µM [falling, single point].

`C=CCc1cccc2cc(NC(C)=O)c(=O)oc12`: the cell number change was 14.6%. Also, the AC50 under setting [1] is 2.91 µM [rising, single point].

`O=C(NCCCn1ccnc1)/C(=C\c1ccco1)NC(=O)c1ccco1`: the cell number change turned out to be 50%. The AC50 under setting [2] was 0.184 µM [rising, full curve, poor fit]. Besides, the AC50 under setting [1] was 0.164 µM [rising, full curve].

Turning to `COc1cc(C(=O)c2c(C)c(CCC#N)n3ccccc23)cc(OC)c1OC`, under setting [2], the AC50 was 6.51 µM [rising, single point].

As to `Cc1cc(NC(=O)Cc2ccsc2)ccc1Br`, the cell number change came to 34%. Further, the AC50 under setting [2] is 10.3 µM [rising, single point]. The concentration at half-maximal activity (AC50) under setting [1] is 29.1 µM [rising, single point].

Regarding `CN1CCN(C(=O)c2cc3ccccc3[nH]2)CC1`, the cell number change was -6.57%.

For `O=C(CCCCC(=O)NNC(=O)COc1ccccc1)NNC(=O)COc1ccccc1`, the cell number change stood at 71.4%. In addition, the AC50 under setting [2] is 25.9 µM [rising, partial curve].

On to `CCCCN(CCCC)C(=S)NC(=O)C(C)(C)C`, for which the cell number change was -23.7%. Besides, the AC50 under setting [1] was 0.0651 µM [falling, full curve, poor fit].

In the case of `Cc1ccc(C(=O)C(OC(=O)c2cnccn2)c2ccccc2)cc1C` (stereo not given), the cell number change was determined as 26.8%. The AC50 under setting [1] is 3.66 µM [rising, partial curve].

In the case of `Cc1cccc(C(=O)OCC(=O)c2c(N)n(CC(C)C)c(=O)n(C)c2=O)c1[N+](=O)[O-]`, the cell number change amounted to 0.278%. Further, the AC50 under setting [2] was 1.16 µM [rising, partial curve].

As for `O=C(N/C(=C/c1ccc(Br)cc1)C(=O)N1CCCC1=O)c1ccco1`, the cell number change was -20.6%.

Consider `O=C(CCNC(=O)c1ccccc1Cl)NCc1ccncc1`, for which the cell number change was determined as 10.1%. The AC50 under setting [1] is 29.1 µM [falling, single point].

Regarding `N#CCCN(C(=O)COC(=O)c1cc2ccccc2oc1=O)c1ccccc1`, the cell number change stood at 31.5%. The half-maximal activity concentration (AC50) under setting [2] was 13 µM [rising, partial curve, poor fit]. Further, the half-maximal activity concentration (AC50) under setting [1] is 4.61 µM [rising, partial curve].

Take `Cc1c(S(=O)(=O)Nc2ccc3c(c2)OCCO3)c(=O)n(C)c(=O)n1C`: the cell number change is 1.52%.

Turning to `O=C(CSc1nc2ccccc2c2nc3ccccc3n12)NCc1ccco1`, the AC50 by setting is: under setting [2], 0.82 µM [rising, partial curve]; under setting [1], 0.092 µM [rising, full curve, poor fit].

Consider `CC(C)N(Cc1ccccc1)C(=O)/C=C/c1ccccc1[N+](=O)[O-]`, for which the cell number change is -19%. In addition, the concentration at half-maximal activity (AC50) under setting [1] is 29.1 µM [falling, single point].

On to `CCOc1ccccc1OCC(=O)NNC(=S)NC1CCCCC1`, for which the cell number change was found to be 13.8%.

With `COC(=O)c1sccc1NC(=O)C1CC(C)=C(C)CC1C(=O)O` (stereo not given), the cell number change is -35.9%. The AC50 under setting [2] is 20.6 µM [falling, single point]. The AC50 under setting [1] is 29.1 µM [falling, single point].

For `COc1ccc2cc(CN(Cc3cccnc3)Cc3nnnn3Cc3ccccc3)c(=O)[nH]c2c1`, the cell number change worked out at 69.9%. Moreover, the AC50 under setting [2] was 2.06 µM [rising, full curve]. Further, the AC50 under setting [1] is 6.51 µM [rising, single point].

Regarding `O=C(NNC(=O)c1ccc(S(=O)(=O)N2CCCC2)cc1)c1ccc(Br)cc1`, the cell number change amounted to 27.7%.

Take `Cc1nn2cc(-c3ccccc3)nc2s1`: the cell number change was 9.84%. Moreover, the AC50 under setting [1] was 10.3 µM [rising, partial curve].

With `CC(Sc1ncnc2sc(-c3ccccc3)cc12)C(=O)N1CCNC1=O` (stereo not given), the cell number change amounted to 0.387%. For the same compound, the AC50 under setting [1] is 7.31 µM [rising, partial curve].

Regarding `Cc1cc(N/N=C/c2ccc(O)cc2O)c2ccccc2n1`, the cell number change is -16.3%. Also, the AC50 under setting [1] is 1.46 µM [rising, partial curve].

As for `CC1(C)C(C#N)=C(N)OC2=C1C(=O)CCC2`, under setting [2], the AC50 was 0.58 µM [rising, single point].

With `CC1(C)Cc2c(sc(NC(=O)c3ccco3)c2C(=O)O)CO1`, the cell number change was -10.9%. In addition, the AC50 under setting [2] is 0.0058 µM [falling, full curve, poor fit]. The AC50 under setting [1] was 0.146 µM [falling, full curve, poor fit].

On to `COc1ccc2cc(C#N)c(NC(C)C)nc2c1`, for which the cell number change amounted to 98.2%. Under setting [2], the half-maximal activity concentration (AC50) is 20.6 µM [rising, partial curve].

Consider `CNC(=O)c1ccc(N(Cc2ccccc2)S(C)(=O)=O)cc1`, for which the cell number change amounted to 1.76%. Besides, under setting [1], the AC50 is 5.8 µM [falling, full curve].

With `CN(CC(=O)NCCc1ccccn1)S(=O)(=O)c1ccc(Cl)cc1`, the cell number change was -0.481%.

On to `C/C(CC(=O)NC12CC3CC(CC(C3)C1)C2)=N\NC(=O)Cc1cccs1`, for which the cell number change was -4.6%. Further, the AC50 under setting [1] is 20.6 µM [falling, single point].

Consider `C=C(C)CSc1nnc(-c2cccc(S(=O)(=O)N(C)C)c2)n1-c1cc(OC)ccc1OC`, for which the AC50 runs as follows: under setting [2], 6.51 µM [rising, single point]; under setting [1], 6.51 µM [rising, single point].

In the case of `CCCc1ccc(Oc2cn[nH]c2-c2ccc(O)cc2O)cc1`, the cell number change was -49.7%. Further, the AC50 under setting [2] is 29.1 µM [falling, single point]. Besides, the half-maximal activity concentration (AC50) under setting [1] was 2.06 µM [falling, partial curve, poor fit].

In the case of `COc1cc(/C=N/N2CCCCC2)cc([N+](=O)[O-])c1O`, the cell number change worked out at 22.9%. Besides, under setting [1], the AC50 was 29.1 µM [rising, single point].

Turning to `CC1CN(S(=O)(=O)c2ccc(C(=O)Nc3sccc3C(N)=O)cc2)CC(C)O1` (stereo not given), the cell number change is -0.348%. The AC50 under setting [1] was 0.651 µM [rising, partial curve].

As to `O=C(CNS(=O)(=O)c1ccc2c(c1)OCCCO2)N1CCN(c2ccc(F)cc2)CC1`, the cell number change was -2.08%. Besides, under setting [1], the AC50 is 1.46 µM [rising, partial curve, poor fit].

With `COc1cccc(CNC(=O)c2cc(=O)[nH]c3ccc(S(=O)(=O)N4CCOCC4)cc23)c1`, the cell number change is -4.65%. In addition, the AC50 under setting [2] was 3.66 µM [falling, partial curve].

In the case of `CCOc1ccc(N(CC(=O)NCc2ccccc2)S(=O)(=O)c2c(C)noc2C)cc1`, the cell number change came out at 38.5%. Further, the AC50 under setting [2] was 0.651 µM [rising, full curve, poor fit]. The AC50 under setting [1] is 0.651 µM [rising, full curve].

Take `Cc1ccc(-n2nc(C)c3c(C)c(CCC(=O)NCc4ccco4)c(C)nc32)cc1`: the cell number change is -24.4%. Moreover, the AC50 under setting [1] was 1.84 µM [falling, partial curve].

With `CCc1c(O)nc(SC2CC(=O)N(c3ccc(F)c(Cl)c3)C2=O)[nH]c1=O` (stereo not given), the cell number change amounted to 8.73%. The AC50 under setting [1] was 6.51 µM [rising, single point].

In the case of `Cc1cccc2nc(CNC(=O)C3CCC(=O)N(Cc4ccccc4F)C3)cn12` (stereo not given), the cell number change amounted to 11.7%.

With `Fc1ccc(-n2nnc(-c3ccccc3Cl)n2)cc1`, the cell number change is -18.6%. In addition, under setting [1], the AC50 was 29.1 µM [falling, single point].

For `Cc1c(C(=O)Nc2ccccc2Cl)oc2ccc(S(=O)(=O)N3CCC4(CC3)OCCO4)cc12`, the cell number change was -14.2%. The AC50 under setting [1] was 0.231 µM [falling, full curve, poor fit].

On to `CN(CC(=O)Nc1ccccc1Br)C(=O)CNC(=O)c1ccc2c(c1)OCO2`, for which the cell number change is -0.854%. Besides, the AC50 under setting [1] was 0.00651 µM [rising, full curve, poor fit].

In the case of `CCOC(=O)C1=C(COC(=O)/C=C/c2ccc(C)o2)NC(=O)NC1C` (stereo not given), the cell number change was 8.17%. Also, the AC50 under setting [1] is 32.6 µM [rising, single point].

With `Cc1n[nH]c(C)c1CCC(=O)N/N=C/c1c(C)[nH]c2ccccc12`, the cell number change is 42.5%. Also, under setting [2], the AC50 is 16.4 µM [rising, partial curve]. The AC50 under setting [1] was 14.6 µM [rising, partial curve].

On to `O=C(NC(=S)Nc1ccccc1N1CCN(C(=O)c2ccccc2)CC1)c1cccs1`, for which the cell number change stood at 14.4%. Besides, under setting [2], the AC50 was 1.46 µM [rising, partial curve, poor fit].

With `COc1cccc(-c2cc(C(F)(F)F)nc(NCc3ccco3)n2)c1`, the cell number change is -32.8%. Moreover, under setting [2], the AC50 is 7.31 µM [falling, partial curve]. For the same compound, the AC50 under setting [1] was 16.4 µM [falling, single point].

Turning to `COc1ccccc1-n1cnc2c(c1=O)c1nc3ccccc3nc1n2-c1ccc(C)cc1`, the cell number change was 5.31%. In addition, the AC50 under setting [2] is 2.91 µM [rising, single point].

As to `COc1cc(-c2nc(-c3cccc(C(F)(F)F)c3)no2)cc(OC)c1OC`, the AC50 under setting [2] is 2.59 µM [rising, partial curve] and the concentration at half-maximal activity (AC50) under setting [1] was 2.59 µM [rising, partial curve].

As for `C#CCOCCOCCOCCNc1nc(N2CCN(C(=O)[C@H]([C@@H](C)CC)n3cc(CCC(=O)O)nn3)CC2)nc(N2CCN(C(=O)[C@H](C)n3cc(CCCN=C(N)N)nn3)CC2)n1`, the cell number change was -22.2%. The concentration at half-maximal activity (AC50) under setting [1] is 8.2 µM [falling, partial curve].
